According to PubChem BioAssay AID192 (DTP/NCI, 2004):
The list is a part of this screen's results and no random one: it gathers tests that were run many times, whatever their T/C, doses with no T/C, and many T/C values between a quarter and a half above the control. Further doses and runs are listed elsewhere. T/C is the treated group as % of the vehicle group. Some entries give survivors of the animals treated and no T/C: the source files T/C as zero there, which appears to mark a toxic dose or a test without result, not a measured value. Some doses without a T/C left all or most animals alive at the check, yet need not have been tolerated: survival well below the control is almost never listed, so the zero probably covers shortened survival too. Counts of survivors are from the toxicity check (mostly the fifth day) where no day follows; animals may have died later. Schedules are NCI's codes, read here as Q, the interval in days (D) or hours (H), X, the number of doses. Some doses were run more than once; the values are given in rising order. For survival time, the PubChem record calls one and a half times the control and up active, and a quarter to a half above the control has no call in these data; cut-offs in other NCI protocols can differ.

Tested on: BDF1 mice, B16 melanoma ip, median survival T/C
Experiment: NCI In Vivo Anticancer Drug Screen. Data for tumor model B16 Melanoma (intraperitoneal) in B6D2F1 (BDF1) mice
Conditions: T/C endpoint: median survival time, higher T/C = longer survival
Procedure: The antitumor activity of compounds was measured in mice bearing transplantable tumors. Survival or tumor size were measured and the results are expressed as the measurement made in the treated group (T) divided by the measurement made in the vehicle treated control group (C). The tumor model used in this assay is B16 Melanoma (intraperitoneal) in B6D2F1 (BDF1) mice

[1] = dose: 25.0 mg/kg/injection, schedule: Q01DX009 (ip), vehicle: saline
[2] = dose: 200.0 mg/kg/injection, schedule: Q01DX009 (ip), vehicle: Klucel (hydroxypropylcellulose) (HPC)
[3] = dose: 400.0 mg/kg/injection, schedule: Q01DX009 (ip), vehicle: Klucel (hydroxypropylcellulose) (HPC)
[4] = dose: 100.0 mg/kg/injection, schedule: Q01DX009 (ip), vehicle: Klucel (hydroxypropylcellulose) (HPC)
[5] = dose: 25.0 mg/kg/injection, schedule: Q01DX009 (ip), vehicle: saline with Tween-80
[6] = dose: 50.0 mg/kg/injection, schedule: Q01DX009 (ip), vehicle: saline with Tween-80
[7] = dose: 10.0 mg/kg/injection, schedule: Q01DX009 (ip), vehicle: saline with Tween-80
[8] = dose: 400.0 mg/kg/injection, schedule: Q01DX009 (ip), vehicle: saline with Tween-80

SMILES: CC[n+]1c(-c2ccccc2)c2cc(N)ccc2c2ccc(N)cc21
- T/C (dose: 6.25 mg/kg/injection, schedule: Q01DX009 (ip), vehicle: saline): 135 % of control
- T/C (dose: 12.0 mg/kg/injection, schedule: Q01DX009 (ip), vehicle: water): 135 % of control
- T/C (dose: 12.5 mg/kg/injection, schedule: Q01DX009 (ip), vehicle: saline): 135 % of control
- survivor count (dose: 16.0 mg/kg/injection, schedule: Q01DX009 (ip), vehicle: saline sonified): 6 of 6
- survivor count [1]: 10 of 10
- survivor count (dose: 32.0 mg/kg/injection, schedule: Q01DX009 (ip), vehicle: saline sonified): 6 of 6
- survivor count (dose: 50.0 mg/kg/injection, schedule: Q01DX009 (ip), vehicle: saline): 10 of 10

SMILES: CC(CN=Cc1ccccc1O)N=Cc1ccccc1O (stereo unspecified)
- survivor count [2]: 10 of 10
- survivor count [3]: 10 of 10

SMILES: NC1(C(=O)O)CSSC1
- survivor count [4]: 6 of 10

SMILES: Nc1ccc(C(=O)Oc2ccc([N+](=O)[O-])cc2)c(O)c1
- survivor count [3]: 10 of 10

SMILES: O=C(O)CCCC1CCCCC1.[Cu+2]
- survivor count [5]: 0 of 6
- survivor count [6]: 0 of 6

SMILES: CC(=Nc1ccccc1)C1=C(O)C(Cc2ccc(O)cc2)NC1=O (stereo unspecified)
- T/C (dose: 25.0 mg/kg/injection, schedule: Q01DX009 (ip), vehicle: saline with Tween-80, evaluated on day 50): 130 % of control
- T/C (dose: 25.0 mg/kg/injection, schedule: Q01DX009 (ip), vehicle: saline with Tween-80, evaluated on day 60): 128 % of control
- T/C [6]: 130 % of control
- survivor count [6]: 10 of 10
- survivor count (dose: 100.0 mg/kg/injection, schedule: Q01DX009 (ip), vehicle: saline with Tween-80): 7 of 10 and 10 of 10
- survivor count (dose: 200.0 mg/kg/injection, schedule: Q01DX009 (ip), vehicle: saline with Tween-80): 10 of 10

SMILES: CN(CCCN(C)CCC1CCCCC1)CCC1CCCCC1
- survivor count [6]: 10 of 10

SMILES: FC(F)(F)c1ccc2c(c1)N(CCCN1CCN(CCOCCCl)CC1)c1ccccc1S2
- survivor count (dose: 1.17 mg/kg/injection, schedule: Q04DX003 (ip), vehicle: saline): 10 of 10
- survivor count (dose: 3.12 mg/kg/injection, schedule: Q01DX009 (ip), vehicle: saline): 10 of 10

SMILES: S=C(Nc1ccccn1)Nc1ccccn1
- survivor count [2]: 7 of 7

SMILES: O=[N+]([O-])c1cc2c(c([N+](=O)[O-])c1)OCOC2
- survivor count [4]: 6 of 6
- survivor count [3]: 5 of 6

SMILES: CC(CN=Cc1ccccc1[O-])N=Cc1ccccc1[O-].[O]=[V] (stereo unspecified)
- survivor count [7]: 10 of 10
- survivor count (dose: 20.0 mg/kg/injection, schedule: Q04DX003 (ip), vehicle: saline with Tween-80): 7 of 10

SMILES: Cc1cc(C)c(-c2cc(O)c(C)cc2O)c(C)c1
- survivor count [3]: 10 of 10

SMILES: Oc1ccc(Br)cc1-c1nc2cc(Cl)c(Cl)cc2nc1-c1cc(Br)ccc1O
- survivor count [2]: 10 of 10
- survivor count [3]: 10 of 10

SMILES: N=C(N)c1ccc(/C=C/c2ccc(C(=N)N)cc2O)cc1
- survivor count (dose: 100.0 mg/kg/injection, schedule: Q01DX009 (ip), vehicle: water): 0 of 10

SMILES: CCC(C)(C[NH-])C[NH-].[Cl][Pt+2][Cl]
- survivor count (dose: 2.0 mg/kg/injection, schedule: Q01DX009 (ip), vehicle: carboxymethylcellulose (CMC)): 5 of 10 on day 10

SMILES: NC(N)=NC(N)=Nc1ccc(-c2ccc(N=C(N)N=C(N)N)cc2)cc1
- survivor count [5]: 6 of 10

SMILES: Oc1ccccc1N=Cc1ccc(C=Nc2ccccc2O)cc1
- survivor count (dose: 300.0 mg/kg/injection, schedule: Q01DX009 (ip), vehicle: gum acacia): 10 of 10

SMILES: O=C(O)CCNCc1ccccc1
- T/C [1]: 127 % of control

SMILES: Cc1ccc(S(=O)(=O)NC(=S)S)cc1
- T/C (dose: 12.5 mg/kg/injection, schedule: Q01DX009 (ip), vehicle: saline with Tween-80): 129 % of control
- T/C [6]: 144 % of control
- T/C [8]: 131 % of control
- survivor count [8]: 2 of 9

SMILES: O=c1c2cccc3cccc(c32)c2nc3ccccc3n12
- survivor count [7]: 9 of 10
- survivor count (dose: 20.0 mg/kg/injection, schedule: Q01DX009 (ip), vehicle: saline with Tween-80): 9 of 10
